{
  "sequences": {"note": "Amino acid sequences for entries named in this document (tags omitted). A change or cut given only in a name is not applied to a line headed by its entry. Residues count along the entry.", "UniProt Q60793": "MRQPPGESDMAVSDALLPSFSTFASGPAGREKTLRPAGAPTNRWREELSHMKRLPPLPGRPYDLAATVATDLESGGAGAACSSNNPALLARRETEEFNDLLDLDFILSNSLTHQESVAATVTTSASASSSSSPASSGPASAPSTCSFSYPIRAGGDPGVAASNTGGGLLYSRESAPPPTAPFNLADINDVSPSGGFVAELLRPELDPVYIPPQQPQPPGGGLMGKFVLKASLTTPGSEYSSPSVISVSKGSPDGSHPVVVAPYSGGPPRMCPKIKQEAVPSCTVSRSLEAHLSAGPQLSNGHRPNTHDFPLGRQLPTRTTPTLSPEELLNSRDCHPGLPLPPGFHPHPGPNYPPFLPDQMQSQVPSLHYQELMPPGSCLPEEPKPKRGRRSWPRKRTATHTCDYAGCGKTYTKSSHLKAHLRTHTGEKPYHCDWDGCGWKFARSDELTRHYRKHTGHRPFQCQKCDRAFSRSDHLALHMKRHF", "GST-Klf4 fragment 401-483 aa": "residues 401-483 of Q60793", "UniProt Q9JIF0": "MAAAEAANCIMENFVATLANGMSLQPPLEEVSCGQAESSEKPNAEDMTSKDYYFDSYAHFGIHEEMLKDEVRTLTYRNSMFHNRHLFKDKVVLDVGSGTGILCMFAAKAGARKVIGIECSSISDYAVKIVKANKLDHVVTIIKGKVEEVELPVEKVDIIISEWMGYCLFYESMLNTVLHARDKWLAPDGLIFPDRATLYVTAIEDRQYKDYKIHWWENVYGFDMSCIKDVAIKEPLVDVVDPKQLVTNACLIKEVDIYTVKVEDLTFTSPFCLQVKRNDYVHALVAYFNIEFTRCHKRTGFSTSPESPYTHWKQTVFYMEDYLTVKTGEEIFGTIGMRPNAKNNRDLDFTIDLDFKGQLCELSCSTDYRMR", "UniProt O09106": "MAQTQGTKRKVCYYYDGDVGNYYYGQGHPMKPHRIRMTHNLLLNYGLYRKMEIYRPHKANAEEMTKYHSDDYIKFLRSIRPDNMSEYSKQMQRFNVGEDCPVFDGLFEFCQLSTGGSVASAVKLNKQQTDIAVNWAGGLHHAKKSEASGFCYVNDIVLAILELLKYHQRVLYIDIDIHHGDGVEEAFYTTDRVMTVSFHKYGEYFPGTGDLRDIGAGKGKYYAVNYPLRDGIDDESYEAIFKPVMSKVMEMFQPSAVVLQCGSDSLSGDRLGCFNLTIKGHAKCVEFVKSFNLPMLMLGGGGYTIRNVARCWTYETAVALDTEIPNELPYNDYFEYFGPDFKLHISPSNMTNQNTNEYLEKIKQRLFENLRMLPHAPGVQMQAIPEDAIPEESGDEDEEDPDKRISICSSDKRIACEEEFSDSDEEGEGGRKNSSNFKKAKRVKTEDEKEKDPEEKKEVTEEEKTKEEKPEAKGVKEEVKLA", "UniProt P70288": "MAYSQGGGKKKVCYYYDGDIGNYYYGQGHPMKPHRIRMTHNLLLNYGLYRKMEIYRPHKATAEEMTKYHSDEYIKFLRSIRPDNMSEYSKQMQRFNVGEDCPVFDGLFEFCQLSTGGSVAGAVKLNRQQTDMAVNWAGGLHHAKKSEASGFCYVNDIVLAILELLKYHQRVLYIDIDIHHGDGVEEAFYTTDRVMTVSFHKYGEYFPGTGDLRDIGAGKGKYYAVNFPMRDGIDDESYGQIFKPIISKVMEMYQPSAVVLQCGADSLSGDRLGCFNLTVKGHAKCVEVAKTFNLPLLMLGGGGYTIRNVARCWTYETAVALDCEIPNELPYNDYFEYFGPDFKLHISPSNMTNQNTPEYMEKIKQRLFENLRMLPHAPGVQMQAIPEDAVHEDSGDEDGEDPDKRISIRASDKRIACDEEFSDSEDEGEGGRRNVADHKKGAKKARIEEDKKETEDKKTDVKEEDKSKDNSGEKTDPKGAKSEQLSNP"},
  "source": "paper PMC8887470",
  "key": {"Myc-Klf4 (mouse)": {"target": "Myc-Klf4 (mouse) (UniProt Q60793)", "assay": "co-IP; whole-cell extracts of HEK293T cells transfected with Myc-Klf4 and/or FLAG-Prmt1; IP with anti-Myc, blot with anti-FLAG and anti-Myc"}, "[1]": {"target": "GST-Klf4 fragment 401-483 aa (mouse) (UniProt Q60793)", "assay": "pull-down; GST-KLF4 or truncated KLF4 bound to glutathione-sepharose, incubated with lysate of HEK293T cells expressing FLAG-Prmt1 in RIPA lysis buffer, 4 h, 4°C; blot with anti-FLAG; only the target purified"}, "[2]": {"target": "FLAG-Klf4 (WT), in E14 cells (mouse) (UniProt Q60793)", "assay": "co-IP; whole-cell extracts of E14 cells transfected with FLAG-Klf4 (WT) or its R396 mutants; IP with anti-FLAG, blots for HDAC1, HDAC2, mSin3a; IgG as negative control"}, "[3]": {"target": "Klf4 (endogenous, E14 ES cells) (mouse (endogenous in E14)) (UniProt Q60793)", "assay": "co-IP; endogenous proteins; whole-cell extracts of WT and Prmt1 KO E14 cells, IP with an anti-Klf4 antibody, blots for the partners; IgG as negative control"}},
  "note": "These are yes or no findings as the source states them, for the method shown. Binding seen in cells or lysates may run through a third protein. Some entries that bind do so weakly or less than the wild type.",
  "data": [
    {"molecule": "FLAG-Prmt1 (from UniProt Q9JIF0 1-371) (enzyme)", "values": [
      {"measurement": "binding", "setting": "Myc-Klf4 (mouse)", "value": "binds"},
      {"measurement": "binding", "setting": "[1]", "value": "binds"}
    ]},
    {"molecule": "HDAC1 (endogenous, E14 ES cells) (from UniProt O09106 1-482)", "values": [
      {"measurement": "binding", "setting": "[2]", "value": "binds"},
      {"measurement": "binding", "setting": "[3]", "value": "binds"}
    ]},
    {"molecule": "HDAC2 (endogenous, E14 ES cells) (from UniProt P70288 1-488)", "values": [
      {"measurement": "binding", "setting": "[2]", "value": "binds"},
      {"measurement": "binding", "setting": "[3]", "value": "binds"}
    ]},
    {"molecule": "mSin3a (endogenous, E14 ES cells) (protein, UniProt Q60520 1-1274) MKRRLDDQESPVYAAQQRRIPGSTEAFSHQHRVLAPAPPVYEAVSETMQSATGIQYSVAPNYQVSAVPQSSGSHGPAIAAVHSSHHHPTAVQPHGGQVVQSHAHPAPPVAPVQGQQQFQRLKVEDALSYLDQVKLQFGSQPQVYNDFLDIMKEFKSQSIDTPGVISRVSQLFKGHPDLIMGFNTFLPPGYKIEVQTNDMVNVTTPGQVHQIPTHGIQPQPQPPPQHPSQPSSQSAPTPAQPAPQPTAAKVSKPSQLQAHTPASQQTPPLPPYASPRSPPVQPHTPVTISLGTAPSLQNNQPVEFNHAINYVNKIKNRFQGQPDIYKAFLEILHTYQKEQRNAKEAGGNYTPALTEQEVYAQVARLFKNQEDLLSEFGQFLPDANSSVLLSKTTAEKVDSVRNDHGGTVKKPQLNNKPQRPSQNGCQIRRHSGTGATPPVKKKPKLMSLKESSMADASKHGVGTESLFFDKVRKALRSAEAYENFLRCLVIFNQEVISRAELVQLVSPFLGKFPELFNWFKNFLGYKESVHLESFPKERATEGIAMEIDYASCKRLGSSYRALPKSYQQPKCTGRTPLCKEVLNDTWVSFPSWSEDSTFVSSKKTQYEEHIYRCEDERFELDVVLETNLATIRVLEAIQKKLSRLSAEEQAKFRLDNTLGGTSEVIHRKALQRIYADKAADIIDGLRKNPSIAVPIVLKRLKMKEEEWREAQRGFNKVWREQNEKYYLKSLDHQGINFKQNDTKVLRSKSLLNEIESIYDERQEQATEENAGVPVGPHLSLAYEDKQILEDAAALIIHHVKRQTGIQKEDKYKIKQIMHHFIPDLLFAQRGDLSDVEEEEEEEMDVDEATGAPKKHNGVGGSPPKSKLLFSNTAAQKLRGMDEVYNLFYVNNNWYIFMRLHQILCLRLLRICSQAERQIEEENREREWEREVLGIKRDKSDSPAIQLRLKEPMDVDVEDYYPAFLDMVRSLLDGNIDSSQYEDSLREMFTIHAYIAFTMDKLIQSIVRQLQHIVSDEVCVQVTDLYLAENNNGATGGQLNSQTSRSLLESAYQRKAEQLMSDENCFKLMFIQSQGQVQLTVELLDTEEENSDDPVEAERWSDYVERYMSSDTTSPELREHLAQKPVFLPRNLRRIRKCQRGREQQEKEGKEGNSKKTMENVESLDKLECRFKLNSYKMVYVIKSEDYMYRRTALLRAHQSHERVSKRLHQRFQAWVDKWTKEHVPREMAAETSKWLMGEGLEGLVPCTTTCDTETLHFVSINKYRVKYGTVFKAP", "values": [
      {"measurement": "binding", "setting": "[2]", "value": "binds"},
      {"measurement": "binding", "setting": "[3]", "value": "binds"}
    ]}
  ]
}
